In article PMC10265101 one finds binding data, which are given here for 1 molecule.

Protein sequences, listed by entry. Tags and fused reporters are not part of them. Residues count along the entry.
UniProt Q9NZQ7, residues 19-290: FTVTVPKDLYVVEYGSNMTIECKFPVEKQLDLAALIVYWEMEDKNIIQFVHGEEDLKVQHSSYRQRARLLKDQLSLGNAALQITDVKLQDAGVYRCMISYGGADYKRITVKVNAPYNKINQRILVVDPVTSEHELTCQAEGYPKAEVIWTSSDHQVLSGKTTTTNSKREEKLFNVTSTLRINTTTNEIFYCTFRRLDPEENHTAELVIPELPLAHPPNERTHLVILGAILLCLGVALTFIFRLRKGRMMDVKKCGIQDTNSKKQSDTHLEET

Results are given in words; binding and its absence hold for the method and conditions named. Some entries that bind do so weakly or less than the wild type.

This assay concerns the target PD-L1 on A549, H1975 and MDA-MB-231 cells (human (endogenous in A549, H1975, MDA-MB-231)) (UniProt Q9NZQ7). As to the kind of experiment: flow cytometry on cells; non-contact transwell coculture (0.4 µm): 1 x 10^5 cells at the bottom, 5 x 10^5 Nb-CAR.BiTE-γδT cells on top, 24 h; bottom cells stained with anti-VHH antibody. On the technique in general: Flow cytometry measures light scatter and fluorescence of single cells or particles in a stream.

B1: secreted PD-L1/CD3ε Nb-BiTE from Nb-CAR.BiTE-γδT cells (bispecific antibody)
chain: HVQLVESGGGLVQPGGSLRLSCAASGFTFSSKAMSWVRQAPGKGLDWVSTINSGGGNTYYSDSVKGRFTISRDNAKNTLYLQLNSLKTEDTAMYYCSRCSDIYCGGQYTYRGQGTLVTVSSGGGGSGGGGSGGGGSEVQLVESGGGLVQPGGSLRLSCVASGFTFSSIGMSWVRQAPGKGLEWVSGLNPVGSHTGYADSVKGRFTISRDNAKNTLHLQLNSLKTEDTAMYYCQRGYTCSGDLCERGQGTQVTVSSGGGGSGGGGSGGGGSHVQLVESGGGSVQAGGSLRLSCTVSGVIFKNEYMGWFRQAPGKEREGVAAASPGGTITYYGDSVKGRFTISRDNAKNTVYLQMNRLKPEDTAMYYCALDPSTTSWSIIRHGPSLWRYSGRGTQVTVSS
With B1, the binding result is given as “binds”.
